In the test the target is T1, Xeroderma Pigmentosum Complementation Group C (XPC) protein (mouse (endogenous in Th17 cells)) (UniProt P51612).
T1 sequence: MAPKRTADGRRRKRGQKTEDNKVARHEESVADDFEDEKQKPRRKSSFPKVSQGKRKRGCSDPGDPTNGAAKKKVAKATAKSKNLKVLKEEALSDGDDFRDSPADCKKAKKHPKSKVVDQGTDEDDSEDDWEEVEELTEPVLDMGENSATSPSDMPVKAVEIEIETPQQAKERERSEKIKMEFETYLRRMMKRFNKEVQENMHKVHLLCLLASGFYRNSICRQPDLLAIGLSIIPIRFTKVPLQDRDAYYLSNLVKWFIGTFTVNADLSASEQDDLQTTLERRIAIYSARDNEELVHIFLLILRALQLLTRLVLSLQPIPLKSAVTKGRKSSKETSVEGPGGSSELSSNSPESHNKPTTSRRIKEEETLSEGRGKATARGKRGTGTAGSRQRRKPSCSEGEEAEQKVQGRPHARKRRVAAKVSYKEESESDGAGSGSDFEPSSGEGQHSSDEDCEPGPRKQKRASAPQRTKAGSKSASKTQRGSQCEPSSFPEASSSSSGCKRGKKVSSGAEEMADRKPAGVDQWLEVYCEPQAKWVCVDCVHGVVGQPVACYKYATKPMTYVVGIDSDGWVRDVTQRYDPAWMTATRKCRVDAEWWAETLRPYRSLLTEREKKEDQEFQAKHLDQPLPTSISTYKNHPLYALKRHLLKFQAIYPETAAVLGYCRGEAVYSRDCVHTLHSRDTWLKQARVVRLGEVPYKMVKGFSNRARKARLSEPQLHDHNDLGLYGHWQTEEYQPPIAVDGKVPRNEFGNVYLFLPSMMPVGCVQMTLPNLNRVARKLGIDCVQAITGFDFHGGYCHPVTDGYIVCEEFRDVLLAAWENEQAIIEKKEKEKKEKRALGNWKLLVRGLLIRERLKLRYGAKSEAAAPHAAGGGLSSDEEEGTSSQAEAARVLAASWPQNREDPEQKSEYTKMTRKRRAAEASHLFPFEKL
Kind of test: co-IP.

Chains of the proteins cited; added tags and fusions are not shown.
UniProt O08760: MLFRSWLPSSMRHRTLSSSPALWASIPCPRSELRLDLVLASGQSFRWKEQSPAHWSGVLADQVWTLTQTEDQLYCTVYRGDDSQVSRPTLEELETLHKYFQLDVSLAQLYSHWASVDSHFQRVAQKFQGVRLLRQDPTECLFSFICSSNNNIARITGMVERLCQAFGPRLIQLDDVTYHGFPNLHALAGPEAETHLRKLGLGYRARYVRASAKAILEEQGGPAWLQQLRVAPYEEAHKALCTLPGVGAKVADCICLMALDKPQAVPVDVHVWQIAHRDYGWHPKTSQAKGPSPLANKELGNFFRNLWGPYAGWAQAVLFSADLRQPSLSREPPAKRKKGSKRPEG

Results are given in words; binding and its absence hold for the method and conditions named. Binding seen in cells or lysates may run through a third protein. Some binding calls cover weakened binding; strength is not graded here.

For “OGG1 (from UniProt O08760 1-345) (enzyme)”, the binding entry is recorded as “binds”.

The values above are taken from publication doi:10.1101/2024.09.13.612834.
